PubChem BioAssay AID1259405 | NCATS | 2018
Aim: 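Mouse-designed siRNAs used to find CHO productivity engineering targets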 (primary screen). Cell system: Chinese hamster CHO-K1 ovary cells with stable secreted eGFP expression. Knock-down reagent: single siRNA against mouse genes, 0.8 pmol siRNA per well (2 µl of 400 nM stock). Timing: 3 days. Measured: 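Per-well intracellular GFP measured by laser scanning cytometry, plus viability from ATP luminescence, each relative to plate median of non-targeting control wells, in %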. Scale: GFP, % of control: higher = more GFP per well, higher productivity; viability (ATP), % of control: higher = more viable cells (more ATP). Rule for the call: 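Called active when intracellular GFP, relative to negative control, is at or above 120%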.
In all, the deposit lists about 50,000 reagents; this is an unselected part. About 4,000 of them (8%) were called active. 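Mouse siRNA library applied to hamster cells; one well for each siRNA.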 A number with no mark means an inactive call. The numbers tell different reagents against one gene apart. No sequences are given here.

{"Target gene":"Ptrh1 (peptidyl-tRNA hydrolase 1 homolog)","reagent no.":1,"GFP, % of control":54,"viability (ATP), % of control":14.9}
{"Target gene":"Ptrh1 (peptidyl-tRNA hydrolase 1 homolog)","reagent no.":2,"GFP, % of control":73.3,"viability (ATP), % of control":102}
{"Target gene":"Ptrh1 (peptidyl-tRNA hydrolase 1 homolog)","reagent no.":3,"GFP, % of control":53.2,"viability (ATP), % of control":66.4}
{"Target gene":"Dnmt3l (DNA methyltransferase 3-like)","reagent no.":1,"GFP, % of control":119,"viability (ATP), % of control":103}
{"Target gene":"Dnmt3l (DNA methyltransferase 3-like)","reagent no.":2,"GFP, % of control":60.9,"viability (ATP), % of control":63.6}
{"Target gene":"Dnmt3l (DNA methyltransferase 3-like)","reagent no.":3,"GFP, % of control":72.8,"viability (ATP), % of control":58}
{"Target gene":"Pigyl","reagent no.":1,"GFP, % of control":111,"viability (ATP), % of control":96.7}
{"Target gene":"Pigyl","reagent no.":2,"GFP, % of control":92.4,"viability (ATP), % of control":75.8}
{"Target gene":"Pigyl","reagent no.":3,"GFP, % of control":69.5,"viability (ATP), % of control":89}
{"Target gene":"Cirsr (corepressor of RBPJ and splicing regulator)","reagent no.":1,"GFP, % of control":103,"viability (ATP), % of control":90.8}
{"Target gene":"Cirsr (corepressor of RBPJ and splicing regulator)","reagent no.":2,"GFP, % of control":88.2,"viability (ATP), % of control":91.1}
{"Target gene":"Cirsr (corepressor of RBPJ and splicing regulator)","reagent no.":3,"GFP, % of control":50,"viability (ATP), % of control":76.5}
{"Target gene":"Map1lc3a (microtubule-associated protein 1 light chain 3 alpha)","reagent no.":1,"GFP, % of control":67.4,"viability (ATP), % of control":75.3}
{"Target gene":"Map1lc3a (microtubule-associated protein 1 light chain 3 alpha)","reagent no.":2,"GFP, % of control":70.9,"viability (ATP), % of control":62.5}
{"Target gene":"Map1lc3a (microtubule-associated protein 1 light chain 3 alpha)","reagent no.":3,"GFP, % of control":"139 (active)","viability (ATP), % of control":71.5}
{"Target gene":"Kcnk4 (potassium channel, subfamily K, member 4)","reagent no.":1,"GFP, % of control":49.4,"viability (ATP), % of control":27}
{"Target gene":"Kcnk4 (potassium channel, subfamily K, member 4)","reagent no.":2,"GFP, % of control":52.7,"viability (ATP), % of control":71.2}
{"Target gene":"Kcnk4 (potassium channel, subfamily K, member 4)","reagent no.":3,"GFP, % of control":59.4,"viability (ATP), % of control":71.9}
{"Target gene":"Gpaa1 (GPI anchor attachment protein 1)","reagent no.":1,"GFP, % of control":75.6,"viability (ATP), % of control":73.9}
{"Target gene":"Gpaa1 (GPI anchor attachment protein 1)","reagent no.":2,"GFP, % of control":96,"viability (ATP), % of control":70.7}
{"Target gene":"Gpaa1 (GPI anchor attachment protein 1)","reagent no.":3,"GFP, % of control":44.8,"viability (ATP), % of control":47.8}
{"Target gene":"Or6n2 (olfactory receptor family 6 subfamily N member 2)","reagent no.":1,"GFP, % of control":58.3,"viability (ATP), % of control":50}
{"Target gene":"Or6n2 (olfactory receptor family 6 subfamily N member 2)","reagent no.":2,"GFP, % of control":39.7,"viability (ATP), % of control":81.6}
{"Target gene":"Or6n2 (olfactory receptor family 6 subfamily N member 2)","reagent no.":3,"GFP, % of control":37.1,"viability (ATP), % of control":41.9}
{"Target gene":"Pramel25 (PRAME like 25)","reagent no.":1,"GFP, % of control":107,"viability (ATP), % of control":94.8}
{"Target gene":"Pramel25 (PRAME like 25)","reagent no.":2,"GFP, % of control":40.4,"viability (ATP), % of control":43.7}
{"Target gene":"Pramel25 (PRAME like 25)","reagent no.":3,"GFP, % of control":112,"viability (ATP), % of control":63.4}
{"Target gene":"Slc6a8","reagent no.":1,"GFP, % of control":94,"viability (ATP), % of control":57.1}
{"Target gene":"Slc6a8","reagent no.":2,"GFP, % of control":36.3,"viability (ATP), % of control":28.7}
{"Target gene":"Slc6a8","reagent no.":3,"GFP, % of control":87.8,"viability (ATP), % of control":74.2}
{"Target gene":"Pias3 (protein inhibitor of activated STAT 3)","reagent no.":1,"GFP, % of control":"121 (active)","viability (ATP), % of control":98.5}
{"Target gene":"Pias3 (protein inhibitor of activated STAT 3)","reagent no.":2,"GFP, % of control":59.8,"viability (ATP), % of control":59.7}
{"Target gene":"Pias3 (protein inhibitor of activated STAT 3)","reagent no.":3,"GFP, % of control":"156 (active)","viability (ATP), % of control":145}
{"Target gene":"Ephb6 (Eph receptor B6)","reagent no.":1,"GFP, % of control":54.4,"viability (ATP), % of control":59.6}
{"Target gene":"Trip6 (thyroid hormone receptor interactor 6)","reagent no.":1,"GFP, % of control":100,"viability (ATP), % of control":89.3}
{"Target gene":"Trip6 (thyroid hormone receptor interactor 6)","reagent no.":2,"GFP, % of control":79.9,"viability (ATP), % of control":98.3}
{"Target gene":"Fgf10 (fibroblast growth factor 10)","reagent no.":1,"GFP, % of control":72.9,"viability (ATP), % of control":66}
{"Target gene":"Fgf10 (fibroblast growth factor 10)","reagent no.":2,"GFP, % of control":74.2,"viability (ATP), % of control":90.1}
{"Target gene":"Fgf10 (fibroblast growth factor 10)","reagent no.":3,"GFP, % of control":68.1,"viability (ATP), % of control":64.5}
{"Target gene":"Apoc1 (apolipoprotein C-I)","reagent no.":1,"GFP, % of control":"123 (active)","viability (ATP), % of control":116}
{"Target gene":"Apoc1 (apolipoprotein C-I)","reagent no.":2,"GFP, % of control":38.7,"viability (ATP), % of control":51}
{"Target gene":"Apoc1 (apolipoprotein C-I)","reagent no.":3,"GFP, % of control":"126 (active)","viability (ATP), % of control":94.5}

Active calls, of those listed so far:
{"Target gene":"Map1lc3a (microtubule-associated protein 1 light chain 3 alpha)","reagent no.":3,"GFP, % of control":"139 (active)","viability (ATP), % of control":71.5}
{"Target gene":"Pias3 (protein inhibitor of activated STAT 3)","reagent no.":1,"GFP, % of control":"121 (active)","viability (ATP), % of control":98.5}
{"Target gene":"Pias3 (protein inhibitor of activated STAT 3)","reagent no.":3,"GFP, % of control":"156 (active)","viability (ATP), % of control":145}
{"Target gene":"Apoc1 (apolipoprotein C-I)","reagent no.":1,"GFP, % of control":"123 (active)","viability (ATP), % of control":116}
{"Target gene":"Apoc1 (apolipoprotein C-I)","reagent no.":3,"GFP, % of control":"126 (active)","viability (ATP), % of control":94.5}
